PubChem BioAssay AID504774, Drosophila RNAi Screening Center – 2011

- Test: 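Fly genes whose loss alters survival after alkylation damage to DNA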 (primary screen)
- Cells: Drosophila Kc167 cells
- Knock-down reagent: long dsRNA against Drosophila genes, about 0.25 µg dsRNA per well
- Timing: about 6 days: 3 days knock-down, then 3 days with or without MMS
- Challenge: methyl methanesulphonate 0.004% (w/v) for 3 days after knock-down
- Measurement: 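Viability in wells given MMS, read as ATP luminescence, normalised by quantiles plate by plate and averaged across replicates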
- Scale: mean viability with MMS: higher = more surviving cells after MMS
The deposit covers about 23,000 reagents; below is an unselected part of those that have a named target and a result. 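Values are quantile-normalised luminescence on an arbitrary scale; higher means more cells surviving MMS.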 Names joined by + are all predicted targets of the reagent. Further read-outs or replicates are left out here.

mean viability with MMS, by gene and reagent
Tim17b2 (GeneID 44381): DRSC03457 3.69e6
CG2871 (GeneID 31411): DRSC18230 3.64e6; DRSC21719 3.36e6
CG8516 (GeneID 41206): DRSC16437 3.48e6
CG31275 (GeneID 326131): DRSC16919 3.57e6
Cortactin (GeneID 42491): DRSC16612 3.60e6
Ldh (GeneID 45880): DRSC11198 3.52e6
Nle (GeneID 33234): DRSC00763 3.60e6
CG15249 (GeneID 31924): DRSC17978 3.63e6
Corin (GeneID 35691): DRSC06818 3.53e6
Eip63E (GeneID 38433): DRSC08658 3.61e6
Start1 (GeneID 37927): DRSC04384 3.53e6
Cp16 (GeneID 39001): DRSC11119 3.58e6
CG17636 (GeneID 5740847): DRSC20648 3.58e6
Ppox (GeneID 42939): DRSC17033 3.47e6
CG34289 (GeneID 5740640): DRSC13625 3.43e6
CG30279 (retired record) (GeneID 246524): DRSC22417 3.63e6
CG6836 (GeneID 40070): DRSC10722 3.54e6
CG14856 (GeneID 41790): DRSC14980 3.73e6
CG42615 (GeneID 8674036): DRSC05121 3.51e6
bsk (GeneID 44801): DRSC03499 3.88e6
CG2528 (GeneID 35435): DRSC03724 3.62e6
CG2021 (GeneID 38229): DRSC08546 3.49e6
asRNA:CR31084 (GeneID 10178907): DRSC21649 3.48e6
CG10660 (GeneID 39422): DRSC09769 3.16e6
stnB + stnA: DRSC20969 1.66e6; DRSC21112 3.57e6; DRSC21113 3.47e6
CG14654 (retired record) (GeneID 40592): DRSC12240 3.38e6
IP3K2 (GeneID 32285): DRSC19500 3.58e6; DRSC19747 3.56e6; DRSC22614 3.67e6
Nlg1 (GeneID 40913): DRSC12485 3.51e6; DRSC12532 3.63e6; DRSC12533 3.69e6; DRSC12539 3.64e6
CG11379 (GeneID 31062): DRSC18629 3.39e6
CG6701 (GeneID 36550): DRSC07007 3.52e6
unc (GeneID 33093): DRSC20511 3.42e6
CG3894 (GeneID 37959): DRSC01762 3.67e6; DRSC04012 3.71e6; DRSC04429 3.34e6
CG13743 (GeneID 35911): DRSC05139 3.58e6; DRSC06414 3.42e6; DRSC22775 3.50e6
CG15449 (GeneID 33079): DRSC20521 3.62e6
mus301 (GeneID 38905): DRSC10939 3.34e6
CG17734 (GeneID 41359): DRSC15256 3.58e6
CG3702 (GeneID 33628): DRSC00628 3.54e6
Cdc14 (GeneID 34067): DRSC03013 3.57e6
rush (GeneID 31105): DRSC18568 3.53e6
CalpA (GeneID 37232): DRSC07352 3.51e6
CG9948 (GeneID 38757): DRSC11104 3.60e6
CG18558 (GeneID 33482): DRSC00525 3.32e6; DRSC21593 3.69e6

4 of these entries, reformatted.
{"gene":"CG2871 (GeneID 31411)","DRSC id":"DRSC21719","mean viability with MMS":3.36e6}
{"gene":"CG8516 (GeneID 41206)","DRSC id":"DRSC16437","mean viability with MMS":3.48e6}
{"gene":"CG31275 (GeneID 326131)","DRSC id":"DRSC16919","mean viability with MMS":3.57e6}
{"gene":"Cortactin (GeneID 42491)","DRSC id":"DRSC16612","mean viability with MMS":3.60e6}

More results follow:
mean viability with MMS, by gene and reagent
CG42382 (GeneID 35938): DRSC07671 3.69e6
Usp1 (GeneID 43462): DRSC14155 3.53e6
CG4849 (GeneID 43358): DRSC15662 3.31e6
ems (GeneID 41697): DRSC16941 3.59e6
Mgtor (GeneID 36264): DRSC05958 3.50e6
CG14105 (GeneID 39507): DRSC10107 3.55e6
inaF-B (GeneID 8674114): DRSC18903 3.64e6
Dhdds (GeneID 31708): DRSC17756 3.55e6
Corp (GeneID 31764): DRSC17771 3.66e6
Top2 (GeneID 35225): DRSC03459 3.40e6
Tsp42Er (GeneID 35629): DRSC06183 3.72e6
Tango1 (GeneID 33930): DRSC02127 3.31e6
Trf4 (GeneID 33452): DRSC00729 3.46e6
CG31248 (GeneID 40853): DRSC22722 3.56e6
CG11668 (GeneID 41606): DRSC14341 3.82e6
Snrk (GeneID 36579): DRSC07192 3.46e6; DRSC23332 3.57e6
Tmtc2 (GeneID 33276): DRSC00272 3.60e6
mspo (GeneID 36632): DRSC07652 3.51e6
PyK (GeneID 42620): DRSC16806 3.29e6
CG13795 (GeneID 34049): DRSC02299 3.50e6
stv (GeneID 39518): DRSC09796 3.44e6; DRSC10111 3.44e6
mim (GeneID 2768716): DRSC05013 2.89e6; DRSC23045 3.54e6
Vps33B (GeneID 43077): DRSC15722 3.43e6
CG13285 (GeneID 38623): DRSC09960 3.57e6
CG32112 (GeneID 317860): DRSC09815 3.62e6
Dip-B (GeneID 48450): DRSC16466 3.64e6
Cyp6a19 (GeneID 36662): DRSC07379 3.36e6
CG15483 (GeneID 34687): DRSC02493 3.73e6
CG13887 (GeneID 38096): DRSC08357 3.52e6
